Experimental data: US20140363377A1
Results are given in words; binding and its absence hold for the method and conditions named. Some binding calls cover weakened binding; strength is not graded here.

Amino acid sequences for entries named in this document (tags omitted).
UniProt Q14790: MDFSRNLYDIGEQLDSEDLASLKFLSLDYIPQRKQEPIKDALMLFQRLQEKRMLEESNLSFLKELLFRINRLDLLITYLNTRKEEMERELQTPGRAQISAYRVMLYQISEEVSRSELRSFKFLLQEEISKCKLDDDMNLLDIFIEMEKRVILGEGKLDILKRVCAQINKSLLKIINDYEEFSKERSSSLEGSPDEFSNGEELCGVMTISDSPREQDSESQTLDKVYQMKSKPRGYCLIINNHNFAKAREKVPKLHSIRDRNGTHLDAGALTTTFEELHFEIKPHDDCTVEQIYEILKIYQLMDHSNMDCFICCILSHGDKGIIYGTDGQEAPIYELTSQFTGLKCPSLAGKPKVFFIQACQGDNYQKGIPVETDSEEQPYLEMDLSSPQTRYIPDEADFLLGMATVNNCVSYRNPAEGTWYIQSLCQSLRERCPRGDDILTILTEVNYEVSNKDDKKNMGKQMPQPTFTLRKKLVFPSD

Target: Procaspase 8, endogenous, in human cancer cell lysates (human) (UniProt Q14790)
Assay: immunoprecipitation with anti-histidine tag or anti-Caspase 8 antibody

binding: binds
B1: truncated SPARC polypeptide comprising a sequence near the SPARC amino terminus (SEQ ID NO: 20) (protein)
chain: APQQEALPDETEVVEETVAEVTEVSVGANPVQVEVGEFDDGAEETEEEVVA
